Among the data in patent publication US5807986A, “Methods of making and screening betide libraries” (The Salk Institute For Biological Studies, priority 1995, dated 1998) are IC50 values, retold here.

By UniProt entry, the sequences of proteins in these tests, tags left out. Where a name states a change or a piece, a line headed by the entry shows the natural chain unless it says otherwise.
UniProt P30935: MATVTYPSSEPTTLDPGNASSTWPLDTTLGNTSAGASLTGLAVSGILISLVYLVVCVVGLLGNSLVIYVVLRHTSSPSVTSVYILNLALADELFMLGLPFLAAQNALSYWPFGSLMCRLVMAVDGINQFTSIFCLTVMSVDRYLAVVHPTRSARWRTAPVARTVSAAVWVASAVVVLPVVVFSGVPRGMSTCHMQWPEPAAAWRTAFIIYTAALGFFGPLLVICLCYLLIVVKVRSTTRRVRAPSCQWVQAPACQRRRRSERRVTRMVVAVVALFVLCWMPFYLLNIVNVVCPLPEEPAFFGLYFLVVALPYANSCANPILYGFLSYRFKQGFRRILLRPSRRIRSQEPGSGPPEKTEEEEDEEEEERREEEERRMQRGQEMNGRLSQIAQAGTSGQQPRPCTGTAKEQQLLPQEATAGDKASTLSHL
UniProt P30875: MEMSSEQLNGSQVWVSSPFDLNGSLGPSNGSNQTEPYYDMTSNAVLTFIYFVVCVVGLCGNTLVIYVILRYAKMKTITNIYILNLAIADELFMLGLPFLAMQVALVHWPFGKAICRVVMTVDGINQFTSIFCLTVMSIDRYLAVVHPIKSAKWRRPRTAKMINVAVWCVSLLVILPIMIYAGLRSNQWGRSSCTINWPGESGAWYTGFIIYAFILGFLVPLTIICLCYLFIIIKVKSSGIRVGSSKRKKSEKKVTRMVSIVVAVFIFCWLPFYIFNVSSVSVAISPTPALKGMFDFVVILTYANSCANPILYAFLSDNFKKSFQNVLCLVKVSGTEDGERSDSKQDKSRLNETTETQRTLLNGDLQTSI
UniProt P30873: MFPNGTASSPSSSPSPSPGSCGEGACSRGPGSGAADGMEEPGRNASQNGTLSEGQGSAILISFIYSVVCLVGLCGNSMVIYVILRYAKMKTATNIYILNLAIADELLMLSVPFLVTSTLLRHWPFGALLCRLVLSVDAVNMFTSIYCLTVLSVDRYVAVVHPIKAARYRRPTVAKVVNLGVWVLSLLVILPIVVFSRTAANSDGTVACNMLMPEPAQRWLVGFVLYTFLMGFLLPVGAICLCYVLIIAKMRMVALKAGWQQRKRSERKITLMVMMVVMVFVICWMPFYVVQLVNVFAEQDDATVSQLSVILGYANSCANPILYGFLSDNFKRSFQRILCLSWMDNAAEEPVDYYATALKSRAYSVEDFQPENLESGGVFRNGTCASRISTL

Molecules are shown by their SMILES.

The target in one assay is T1, mSSTR3 (Mus musculus, UniProt P30935).
T1 construct: expressed in transfected cells; host or cells: COS and CHO cells
Kind of assay: inhibition of radioligand binding to cloned SRIF receptor mSSTR3. The settings on record: IC50 mSSTR3, cloned mouse receptor expressed on COS and CHO cells. The method, then: (§1) In vitro Bioassay: The effects of the various somatostatin analogs are tested in vitro for their ability to bind to isolated cloned receptors expressed on COS and CHO cells.
(§2) Five such receptor subtypes termed SSTR1 through SSTR5, have been cloned and are reported and described in Raynor et al., Molecular Pharmacology, 43, 838-844 (1993) and in Raynor et al., Molecular Pharmacology, 44, 385-392 (1993).

Another assay deals with T2, mSSTR2 (Mus musculus, UniProt P30875).
T2 construct: expressed in transfected cells; host or cells: COS and CHO cells
Kind of assay: inhibition of radioligand binding to cloned SRIF receptor mSSTR2. As for the experimental part:
as §1, §2

Another assay has as its target T3, mSSTR1 (Mus musculus, UniProt P30873).
T3 construct: expressed in transfected cells; host or cells: COS and CHO cells
The assay is described as follows: inhibition of radioligand binding to cloned SRIF receptor mSSTR1. Conditions: IC50 mSSTR1, cloned mouse receptor expressed on COS and CHO cells. As for the experimental part: as §1, §2

Regarding `C[C@@H](O)[C@@H]1NC(=O)[C@H](CCCCN)NC(=O)[C@@H](Cc2c[nH]c3ccccc23)NC(=O)[C@H](Cc2ccccc2)NC(=O)[C@H](Cc2ccccc2)NC(=O)[C@@H](N)CSSC[C@@H](C(=O)O)NC(=O)[C@H](Cc2ccccc2)NC1=O` [ODT8, (cyclo 1-8)H-Cys-Phe-Phe-D-Trp-Lys-Thr-Phe-Cys-OH, reference compound], the IC50 at mSSTR3 was determined as 4 nM; at mSSTR2, 35 nM; on mSSTR1, 1 nM.

As usually defined, the IC50 is the concentration needed to halve the response being measured.
